PubChem BioAssay AID901 (National Center for Advancing Translational Sciences (NCATS), 2007)
Some of the results follow. These are further read-outs of the screen, such as a control signal, another cell line or another target. No call is given for them. The list favours compounds with an active or inconclusive main result. Potencies come from curve fits of mixed quality, noted in brackets.

test: qHTS Assay for Identifying the Cell-Membrane Permeable IMPase Inhibitors; details: CHO-M1 cells, IP1 accumulation, HTRF TR-FRET ratio; measured here: donor channel 620 nm AC50

| SMILES | AC50 |
| --- | --- |
| COc1ccccc1-c1c(C(F)(F)F)oc2c(CN3CCCCC3C)c(O)ccc2c1=O (stereo not drawn) | 3550 nM [falling, partial curve, poor fit] |
| COC(=O)c1ccc(C(=O)OC)c(-n2c(=O)c3ccccc3c3ccccc3c2=O)c1 | 35500 nM [falling, single point] |
| Cc1cccc2cc(CN(Cc3ccc4c(c3)OCO4)Cc3nnnn3C3CCCC3)c(=O)[nH]c12 | 31600 nM [rising, single point] |
| COC(=O)C1=C(C)N(C)C(C)=C(C(=O)OC)C1c1ccc(C(=O)OC)cc1 | 794 nM [falling, full curve, poor fit] |
| CCCSc1nc2c(cnn2-c2ccc(C)cc2)c(=O)[nH]1 | 35500 nM [falling, single point] |
| COC(=O)c1sc(N2C(=O)C(O)=C(C(=O)c3ccc(C)o3)C2c2ccc(F)cc2)nc1C (stereo not drawn) | 20000 nM [rising, partial curve] |
| c1cnc(N2CC[N+]3(CCCC3)CC2)nc1 | 5010 nM [falling, single point] |
| C=CCOc1cccc(C2C(C(=O)c3ccc(C)o3)=C(O)C(=O)N2c2nccs2)c1 (stereo not drawn) | 15800 nM [rising, partial curve, poor fit] |
| CCCCOc1ccc(C(=O)N2CCCC2C(=O)O)cc1 (stereo not drawn) | 5620 nM [falling, single point] |
| CCn1c(=O)cc(SCC(=O)N2CCCCC2)c2ccccc21 | 12.6 nM [rising, full curve, poor fit] |
| CC(=O)CCCCn1c(=O)c2c(ncn2C)n(C)c1=O | 25.1 nM [falling, full curve, poor fit] |
| COc1ccc2c(c1)CCc1c(C(=O)N3CCCC3)noc1-2 | 31600 nM [falling, single point] |
| Cc1nonc1NC(=O)CSc1nc2cc(Cl)ccc2c2c1CCCC2 | 12600 nM [rising, partial curve] |
| O=C1CC(N2CCN(c3ccccc3)CC2)C(=O)N1c1ccc2c(c1)OCCO2 (stereo not drawn) | 6310 nM [rising, single point] |
| O=C(CSc1nnc(-c2ccncc2)n1Cc1ccco1)Nc1nccs1 | 35500 nM [rising, single point] |
| COc1cc(-c2nnc(-c3ccccc3)o2)cc(OC)c1OC | 794 nM [falling, full curve] |
| COc1ccc(NC(=O)c2c(NC(=O)Cc3ccccc3)sc3c2CCCC3)cc1 | 50.1 nM [falling, full curve, poor fit] |
| N#C/C(=C\C1CC2C=CC1C2)c1nc2ccccc2[nH]1 (stereo not drawn) | 25100 nM [falling, partial curve] |
| Cc1cc(C)cc(-n2c(SCC(=O)NCc3ccc4c(c3)OCO4)nc3ccccc3c2=O)c1 | 35500 nM [rising, single point] |
| CC(=O)C1=C(O)C(=O)N(C2CCCCC2)C1c1ccccc1 (stereo not drawn) | 794 nM [falling, full curve] |
| O=C1C(=O)c2ccc(-c3ccccc3)cc2-c2ccccc21 | 1000 nM [falling, full curve] |

Single values from the entries so far:
CCn1c(=O)cc(SCC(=O)N2CCCCC2)c2ccccc21 – AC50: 12.6 nM [rising, full curve, poor fit]
COc1cc(-c2nnc(-c3ccccc3)o2)cc(OC)c1OC – AC50: 794 nM [falling, full curve]
Cc1nonc1NC(=O)CSc1nc2cc(Cl)ccc2c2c1CCCC2 – AC50: 12600 nM [rising, partial curve]

The list goes on.

| SMILES | AC50 |
| --- | --- |
| Cc1cccc(-c2nc(SCC(=O)Nc3ccc4c(c3)OCCO4)c(-c3ccccc3)[nH]2)c1 | 2820 nM [falling, partial curve] |
| O=C(NCC(=O)N(Cc1ccccc1)C(C(=O)NCC1CCCO1)c1ccccc1)c1cccs1 (stereo not drawn) | 35500 nM [falling, single point] |
| O=C(CCN1C(=O)c2ccccc2C1=O)Nc1cccnc1 | 316 nM [falling, partial curve] |
| O=C1CCCCCN1Cc1nnc(SCc2nc3ccccc3s2)n1-c1ccccn1 | 10000 nM [falling, partial curve] |
| CCOC(=O)C1(Cc2ccccc2)NC(c2ccccc2F)C2C(=O)N(CC)C(=O)C21 (stereo not drawn) | 31.6 nM [rising, full curve, poor fit] |
| COc1ccccc1NC(=O)N1CCC(C(=O)c2ccc(F)cc2)CC1 | 50.1 nM [falling, full curve, poor fit] |
| CCc1nc(SCC(=O)NCc2ccco2)c2c3c(sc2n1)CCCC3 | 39800 nM [rising, partial curve, poor fit] |
| CC(C)Oc1ccc(/C=N/NC(=O)C(CSCc2ccccc2)NC(=O)c2ccc([N+](=O)[O-])cc2)cc1 (stereo not drawn) | 1000 nM [falling, partial curve, poor fit] |
| Cc1c(CCOC(=O)C23CC4CC(CC(C)(C4)C2)C3)sc[n+]1Cc1ccccc1 | 15800 nM [rising, partial curve, poor fit] |
| Cc1cc(C(=O)CSc2nnc(Cc3ccccc3)o2)c(C)n1Cc1ccc2c(c1)OCO2 | 158 nM [falling, full curve, poor fit] |
| O=C(Nc1c2c(nn1-c1ccc(F)cc1)CS(=O)C2)C12CC3CC(CC(C3)C1)C2 (stereo not drawn) | 2510 nM [falling, full curve, poor fit] |
| Cc1ccc(S(=O)(=O)C2(C(=O)Nc3ccc(F)cc3)CC2)cc1 | 1260 nM [falling, partial curve] |
| Nc1c(C(=O)Nc2ccc(Br)cc2)sc2nc(-c3ccco3)ccc12 | 794 nM [falling, full curve] |
| CC(C)Cn1c(CCC(=O)O)ccc1-c1cccs1 | 25.1 nM [falling, full curve] |
| Cc1cc2cc(CNC(=O)c3ccc(S(=O)(=O)N(C)C)cc3)ccc2n1C | 2000 nM [falling, partial curve] |
| CCN1CCCC1CNC(=O)CCc1nc(-c2ccc(C)cc2)no1 (stereo not drawn) | 3160 nM [rising, single point] |
| COc1ccc2nc(C(C)O)[nH]c2c1 (stereo not drawn) | 5010 nM [falling, single point] |
| CCCCSC1(SCCCC)N=C(N)C2(C#N)C(c3ccccc3)NC(C)=CC12C#N (stereo not drawn) | 12.6 nM [rising, full curve, poor fit] |
| Oc1ccc(Br)cc1-c1cc(-c2ccccc2F)[nH]n1 | 15.8 nM [falling, full curve] |
| COc1ccc(NC(=O)c2ccc(C(=O)c3cc(OC)ccc3OC)cc2)cc1 | 31600 nM [rising, single point] |
| CCN(CC)CCCN(Cc1cc2cc3c(cc2[nH]c1=O)OCCO3)C(=O)Nc1ccccc1 | 3.98 nM [falling, full curve, poor fit] |

| SMILES | AC50 |
| --- | --- |
| COc1ccccc1CNC(=O)c1cccc(Nc2nc3ccccc3n3nnnc23)c1 | 25100 nM [rising, single point] |
| Cn1c(=O)c2c(nc(N3CCOCC3)n2CCCNC2=NCCC2)n(C)c1=O | 3980 nM [rising, full curve] |
| COc1cc(NC(=O)Cn2c(C)cc3ccccc3c2=O)cc(OC)c1OC | 31.6 nM [rising, full curve, poor fit] |
| O=C(O)C1CCCCC1C(=O)NCCc1ccncc1 (stereo not drawn) | 3160 nM [rising, partial curve] |
| CCOC(=O)CSC1=Nc2ccccc2C2=NC(CC(=O)NCc3ccc(OC)cc3)C(=O)N12 (stereo not drawn) | 200 nM [falling, partial curve, poor fit] |
| COc1cccc2sc(Nc3nnc(-c4cccs4)o3)nc12 | 6.31 nM [rising, full curve, poor fit] |
| Cc1nc(SCCC(=O)O)c2ccccc2n1 | 12600 nM [rising, partial curve] |
| CCCCn1nc(NC(=O)c2cccs2)c2cc3ccccc3nc21 | 6310 nM [rising, single point] |
| CCOc1ccc(-c2nc(SCC(=O)Nc3ccc4c(c3)OCCO4)c(-c3ccc(F)cc3)[nH]2)cc1 | 2820 nM [falling, full curve, poor fit] |
| CCN(CC)c1ccc(-n2nc3cc(C)c(NC(=O)c4ccccc4F)cc3n2)cc1 | 631 nM [falling, full curve] |
| COc1ccc(-c2cc(C(F)(F)F)nc(SCC(=O)NCCc3ccc(OC)c(OC)c3)n2)cc1 | 5620 nM [rising, single point] |
| Cc1ccc(NC2=NC(=S)N(CC#N)C23CCCCC3)cc1 | 200 nM [rising, single point] |
| CCC(C)NC(=O)C1CCC(=O)N(c2cc(OC)c(OC)c(OC)c2)C1c1ccc(OC)cc1 (stereo not drawn) | 355 nM [falling, partial curve, poor fit] |
| CCc1ccccc1-n1cnc2cc(C(=O)O)ccc21 | 25.1 nM [falling, full curve, poor fit] |
| COc1cc(/C=c2\sc3nc(-c4ccncc4)nn3c2=O)ccc1OC(C)=O | 10000 nM [falling, partial curve] |
| O=C(Nc1cccc2ccccc12)C12CC3CC(C1)CC(n1cnc([N+](=O)[O-])n1)(C3)C2 | 158 nM [falling, full curve, poor fit] |
| Cc1cc(C)c(C#N)c(SCc2cc3c(cc2Cl)OCO3)n1 | 398 nM [rising, partial curve, poor fit] |
| Cc1ccc(-c2ncccc2OC(=O)C23CC4CC(CC(C4)C2)C3)cc1 | 2510 nM [falling, partial curve, poor fit] |
| Nc1c(C(=O)Nc2ccccc2F)sc2nc(Cc3ccccc3)cc(C(F)(F)F)c12 | 31600 nM [rising, single point] |
| Cc1cccc(C)c1N/C=C/c1onc(C)c1[N+](=O)[O-] | 39.8 nM [falling, full curve, poor fit] |
| Cc1ccccc1OCC(=O)Nc1sc(C(=O)Nc2cccc(C)c2C)c(C)c1C#N | 5010 nM [rising, single point] |
